The values that follow come from publication PMC12541429.

No constants are given. Whether binding was seen depends on the method and setting. In cells and extracts the contact can be indirect. Some results given as binding are weak or reduced against the parent protein; the word gives no strength. Where a sequence is shown, tags or fusion partners need not be part of it.

Assay [1] has as its target T1, GFP-RSPH3B expressed in HEK293T cells (mouse) (UniProt Q9DA80).
T1 sequence: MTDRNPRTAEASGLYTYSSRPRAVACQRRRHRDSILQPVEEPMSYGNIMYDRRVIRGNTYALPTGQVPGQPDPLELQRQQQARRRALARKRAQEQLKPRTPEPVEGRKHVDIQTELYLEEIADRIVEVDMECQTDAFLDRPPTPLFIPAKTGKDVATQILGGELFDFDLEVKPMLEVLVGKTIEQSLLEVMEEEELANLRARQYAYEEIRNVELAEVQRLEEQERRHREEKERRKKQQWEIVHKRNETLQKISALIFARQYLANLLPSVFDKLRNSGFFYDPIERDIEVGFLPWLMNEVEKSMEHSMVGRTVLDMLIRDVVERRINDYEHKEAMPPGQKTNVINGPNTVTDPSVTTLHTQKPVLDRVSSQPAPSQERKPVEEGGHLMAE
In words: co-IP; GFP-RSPH3B precipitated with anti-GFP beads from HEK293T exogenously expressing the indicated proteins (AK8 with or without EFCAB10); high-salt lysis buffer (1% NP-40, 500 mM NaCl, 50 mM Hepes, 5 mM EDTA, pH 7.8), 4 h at 4 °C.

Assay [2] deals with T2, FLAG-tagged AK8 expressed in HEK293T cells (mouse) (UniProt Q32M07).
T2 sequence: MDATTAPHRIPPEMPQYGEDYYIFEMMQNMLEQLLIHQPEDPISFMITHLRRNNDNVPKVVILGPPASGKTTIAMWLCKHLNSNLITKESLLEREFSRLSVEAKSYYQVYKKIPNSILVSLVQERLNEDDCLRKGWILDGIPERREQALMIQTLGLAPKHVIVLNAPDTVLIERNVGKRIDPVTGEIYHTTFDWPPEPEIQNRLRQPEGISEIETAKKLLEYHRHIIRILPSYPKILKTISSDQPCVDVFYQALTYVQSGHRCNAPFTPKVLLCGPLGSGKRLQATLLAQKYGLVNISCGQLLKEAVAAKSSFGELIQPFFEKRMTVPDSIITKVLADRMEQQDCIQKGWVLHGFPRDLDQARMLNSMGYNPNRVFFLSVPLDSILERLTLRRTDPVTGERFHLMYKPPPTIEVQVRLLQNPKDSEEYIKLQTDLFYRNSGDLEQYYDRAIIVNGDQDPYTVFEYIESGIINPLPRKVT
The assay is described as follows: co-IP; GFP-EFCAB10 and FLAG-tagged proteins coexpressed in HEK293T; anti-FLAG agarose beads, 4 h at 4 °C; high-salt lysis buffer (1% NP-40, 500 mM NaCl, 50 mM Hepes, 5 mM EDTA, pH 7.8); blots with GFP and FLAG antibodies.

B1: AK8 coexpressed with GFP-RSPH3B in HEK293T cells (Fig. 4K) (protein, UniProt Q32M07 1-479)
chain: MDATTAPHRIPPEMPQYGEDYYIFEMMQNMLEQLLIHQPEDPISFMITHLRRNNDNVPKVVILGPPASGKTTIAMWLCKHLNSNLITKESLLEREFSRLSVEAKSYYQVYKKIPNSILVSLVQERLNEDDCLRKGWILDGIPERREQALMIQTLGLAPKHVIVLNAPDTVLIERNVGKRIDPVTGEIYHTTFDWPPEPEIQNRLRQPEGISEIETAKKLLEYHRHIIRILPSYPKILKTISSDQPCVDVFYQALTYVQSGHRCNAPFTPKVLLCGPLGSGKRLQATLLAQKYGLVNISCGQLLKEAVAAKSSFGELIQPFFEKRMTVPDSIITKVLADRMEQQDCIQKGWVLHGFPRDLDQARMLNSMGYNPNRVFFLSVPLDSILERLTLRRTDPVTGERFHLMYKPPPTIEVQVRLLQNPKDSEEYIKLQTDLFYRNSGDLEQYYDRAIIVNGDQDPYTVFEYIESGIINPLPRKVT
On to B1, for which, in assay [1], the binding entry is listed as “binds”.

B2: EFCAB10 coexpressed with GFP-RSPH3B and AK8 in HEK293T cells (Fig. 4K) (protein, UniProt Q9D581 1-132)
chain: MEPVADRELQAKLYLERHRIMELLNQLTSFLLFARPKKPREYLISLLERLRVAKATHVAFPYFMDNSNTVSMFEMMDMAGRGCISFVQYKEALKNLGLCTADEVLNDDGHIITLDTFRDEMNKRMEKMWSMF
Turning to B2, the binding result in assay [1] is on record as “binds”.

B3: GFP-EFCAB10 expressed in HEK293T cells (protein, UniProt Q9D581 1-132)
chain: MEPVADRELQAKLYLERHRIMELLNQLTSFLLFARPKKPREYLISLLERLRVAKATHVAFPYFMDNSNTVSMFEMMDMAGRGCISFVQYKEALKNLGLCTADEVLNDDGHIITLDTFRDEMNKRMEKMWSMF
With B3, in assay [2], the binding entry is “binds”.
